Results from PubChem BioAssay AID1347076 (National Center for Advancing Translational Sciences (NCATS), 2019).
The campaign covered roughly 400,000 compounds. About 13,000 (3.2%) were called active. Inconclusive results, whose numbers are uncertain, are shown with a selection of clear calls. Calls come from the whole dose curve; as a rule, active = well fitted cell-killing curve with a large enough effect; inconclusive = small, poorly fitted or top-dose-only effect, or effect the other way; inactive = flat fitted curve, though single readings scatter. Potencies of inconclusive entries are doubtful fits and often do not repeat.

Assay: qHTS assay for MDR1-selective chemotherapeutics: Primary screen using the drug-selected MDR subline cells KB-V1; note: nearly all actives have a fitted effect of over 60% in size
Conditions: KB-V1 MDR cells viability, CellTiter-Glo, 72 h; activity change, negative = cytotoxicity: at 46.1 µM (top of the series)
From the text: A prime difficulty in effectively treating cancer is the development of cellular resistance to multiple structurally unrelated anticancer drugs, a phenomenon known as multidrug resistance (MDR). […] Numerous strategies to overcome P-gp-mediated MDR have been explored, including the design of drugs that evade recognition and efflux, and development of inhibitors to block efflux and restore drug accumulation. […] An alternative approach is to exploit resistance by identifying drugs that target MDR cells over the non-resistant parental cells from which they were selected. […] The development of MDR1-selective agents represents a new strategy for resolving multidrug resistance, as it remains a long-standing clinical challenge for cancer chemotherapy.
Our goal is to identify compounds that selectively kill P-gp-expressing MDR cells. We will identify MDR1-selective compounds by comparing toxicity of compounds in the screening library against parental, drug-naive (KB-3-1) adenocarcinoma cells as well as their drug-selected MDR sub-line (KB-V1). The differential toxicity of compounds against these two cell lines will be used to identify MDR1-selective compounds, whose cytotoxicity is potentiated, rather than diminished, by P-gp expression. This assay will be utilized to conduct a quantitative high-throughput screen (qHTS) in collaboration with the NIH Chemical Genomics Center to identify selective agents, and probe hits arising from the screen will be validated using secondary assays and characterized through a well-established follow-up research program. This screen was run against the entire NCGC library collection of about 400,000 compounds.
NIH Molecular Libraries Probe Production Network [MLPCN]
NIH Chemical Genomics Center [NCGC]
PI: Michael Gottesman, National Cancer Institute, NIH
Briefly, 5 microL of media containing either KB-V1 cells (columns 1-2, 4-48) are dispensed into Greiner white, treated solid-bottom 1536-well assay plates (media-only control is added to column 3). Compounds are then transferred via Kalypsys pin tool equipped with 1536-pin array (10 nL slotted pins, V&P Scientific, San Diego, CA). Following addition of compound, the plates are incubated at 37 degrees C for 72 hours. CellTiter-Glo (2.5 µL/well) is then added, and the plates are read in a ViewLux reader (Perkin-Elmer, clear luminescence filter, 1 second exposure, 1x binning) following a 10 minute incubation. All cells are dispensed in DMEM phenol-red free media containing 10% FBS.
Library plates were screened starting from the lowest and proceeding to the highest concentration. Vehicle-only plates, with DMSO being pin-transferred to columns 5-48, will be inserted uniformly at the beginning and the end of each library in order to monitor and record any shifts in the background, which can be affected by reagent dispensers or loss in enzyme activity over time. Screening data will be corrected, normalized, and concentration-effect relationships will be derived by using publicly-available NCGC, NCATS curve fitting algorithms (http://ncgc.nih.gov/pub/openhts).
% is set by controls: 0 for no effect and ±100 for the full control effect; potency is the fitted concentration of half-maximal effect.

Row | Structure (SMILES) | Potency | activity change, negative = cytotoxicity
1 | O=c1c2c(nc(NCCO)n1CC1CCCCC1)-c1ccccc1CC21CCCC1 | inconclusive: 18.4 µM [cytotoxic, single point] | 
2 | CC(=O)Nc1cccc(NC(=O)COc2ccc3c(c2)OCO3)c1 | inconclusive: 18.4 µM [cytotoxic, partial curve] | 
3 | O=C(/C=C1\NC2(CCCC2)Cc2ccccc21)C(=O)N/N=C/c1ccc(O)c(O)c1 | inconclusive: 29.1 µM [cytotoxic, single point] | 
4 | Cc1ccc(-n2c(=O)c3c4c(sc3n(Cc3cc(=O)n5cc(Cl)ccc5n3)c2=O)CCC4)cc1C |  | inactive: 0%
5 | CCOC(=O)c1ccccc1NC(=O)CN(c1cccc(C)c1C)S(=O)(=O)c1ccccc1 | inconclusive: 13 µM [cytotoxic, partial curve, poor fit] | 
6 | O=C(CSc1ccc(-c2cccnc2)nn1)Nc1ccc(F)c(F)c1 | active: 9.2 µM | 
7 | CC(=O)Nc1ccc(OCC(O)Cn2cncn2)cc1 (stereo unspecified) | inconclusive: 29.1 µM [rising, single point] | 
8 | CCCS(=O)(=O)Nc1ccc(N2CCCCC2)c(S(=O)(=O)Nc2ccccc2OC)c1 |  | inactive: -14.8%
9 | COCCNC(=O)c1ccccc1NC(=O)c1ccccc1SC | inconclusive: 25.9 µM [cytotoxic, partial curve, poor fit] | 
10 | Cc1ccc(S(=O)(=O)N2CCCN(c3nccc(C(F)(F)F)n3)CC2)cc1 | inconclusive: 23.1 µM [rising, single point] | 
11 | C#CCOCCOCCOCCNc1nc(N2CCN(C(=O)CCCCCCCCCCNC(=O)[C@@H](CCC(=O)O)n3cc(CCCCCN)nn3)CC2)nc(N2CCN(C(=O)CCCCCCCCCCNC(=O)[C@H](CO)n3cc(CCCCCN)nn3)CC2)n1 | inconclusive: 0.651 µM [rising, full curve, poor fit] | 
12 | Brc1ccc2nc(C3CCCCC3)c(Cc3ccsc3)n2c1 |  | inactive: 6.13%
13 | Cc1cc(C)c(OCCCCN(C)Cc2ccccc2)c(C)c1 |  | inactive: -5.27%
14 | CCN(CC)c1ncnc2c1ncn2[C@H]1CN(Cc2ccc(OC)cc2)C[C@@H](CO)O1 |  | inactive: -7.05%
15 | Nc1nc(Cl)cc(Sc2ccc3ccccc3c2)n1 | inconclusive: 20.6 µM [cytotoxic, single point] | 
16 | NC(=S)NN=C(Cc1ccccc1)Cc1ccccc1 | inconclusive: 29.1 µM [cytotoxic, single point] | 
17 | CCOc1ccccc1NC(=O)C1CCN(S(=O)(=O)c2ccc3[nH]c(=O)oc3c2)CC1 |  | inactive: 10.5%
18 | CCC1CCCCN1S(=O)(=O)c1ccc(NC(=O)c2nc(S(C)(=O)=O)ncc2Cl)cc1 (stereo unspecified) | inconclusive: 14.6 µM [cytotoxic, partial curve] | 
19 | CCN(CC)CCCNC(=O)c1cc(-c2ccccc2)c(N2CCCCC2)s1 | inconclusive: 8.2 µM [cytotoxic, partial curve] | 
20 | COc1cccc(NC(=S)N2CCN(S(=O)(=O)c3ccc(F)cc3)CC2)c1 |  | inactive: 0%
21 | C#CCN(C(=O)C1CCC(=O)N(CCc2cccc(F)c2)C1)C1CCCCC1 (stereo unspecified) | inconclusive: 25.9 µM [cytotoxic, partial curve, poor fit] | 

Excerpt: nos. 9–11
Row | Structure (SMILES) | Potency | activity change, negative = cytotoxicity
9 | COCCNC(=O)c1ccccc1NC(=O)c1ccccc1SC | inconclusive: 25.9 µM [cytotoxic, partial curve, poor fit] | 
10 | Cc1ccc(S(=O)(=O)N2CCCN(c3nccc(C(F)(F)F)n3)CC2)cc1 | inconclusive: 23.1 µM [rising, single point] | 
11 | C#CCOCCOCCOCCNc1nc(N2CCN(C(=O)CCCCCCCCCCNC(=O)[C@@H](CCC(=O)O)n3cc(CCCCCN)nn3)CC2)nc(N2CCN(C(=O)CCCCCCCCCCNC(=O)[C@H](CO)n3cc(CCCCCN)nn3)CC2)n1 | inconclusive: 0.651 µM [rising, full curve, poor fit] | 

More structures.

Row | Structure (SMILES) | Potency | activity change, negative = cytotoxicity
22 | CCCCN(C(=O)C1CC(=O)N(CCc2ccc(OC)c(OC)c2)C1)c1c(N)n(CC(C)C)c(=O)[nH]c1=O (stereo unspecified) | inconclusive: 20.6 µM [rising, single point] | 
23 | CC(=O)Nc1ccc(S(=O)(=O)N2CCN(C(=O)c3ncoc3-c3ccc(F)cc3)CC2)cc1 | inconclusive: 29.1 µM [rising, single point] | 
24 | CC(C(=O)N1CCOCC1)N1C(=O)C2C3CC(C(Br)C3Br)C2C1=O (stereo unspecified) | inconclusive: 29.1 µM [rising, single point] | 
25 | O=C(Nc1nc2ccccc2[nH]1)C12CC3CC(CC(C3)C1)C2 | inconclusive: 18.4 µM [cytotoxic, single point] | 
26 | CCC(CC)C(=O)N(CCc1ccc(OC)cc1)Cc1nc2ccccc2c(=O)[nH]1 | inconclusive: 20.6 µM [cytotoxic, single point] | 
27 | COc1ccc(NC(=O)c2cccc(NS(=O)(=O)c3ccccc3)c2)cc1 | inconclusive: 20.6 µM [cytotoxic, single point] | 
28 | CC[C@]12c3[nH]c4ccc(Cl)cc4c3CCN1C(=O)[C@@H](CC(=O)NCc1cccc(C(F)(F)F)c1)C[C@@H]2C(=O)N1CCN(C(=O)c2ccco2)CC1 |  | inactive: 0.0002%
29 | COc1cc(CCC(=O)N2CCN(c3ccccc3)CC2)cc(OC)c1OC | inconclusive: 9.2 µM [cytotoxic, partial curve, poor fit] | 
30 | O=C1C=C(Nc2ccccc2)c2ccccc2C1=O | inconclusive: 23.1 µM [cytotoxic, single point] | 
31 | O=C(Cc1c(F)cccc1Cl)NCc1cccnc1 | inconclusive: 18.4 µM [rising, single point] | 
32 | CCCCOc1ccc(C(O)C(CN2CCCCC2)c2ccccc2)cc1 (stereo unspecified) |  | inactive: -5.63%
33 | COc1ccc(Nc2nc(N)nc(CN3CCN(c4ccc(F)cc4)CC3)n2)cc1 | inconclusive: 18.4 µM [cytotoxic, single point] | 
34 | Cc1csc(NC(=O)CCC(=O)N(CC(=O)NC2CCCCC2)c2ccccc2)n1 | inconclusive: 29.1 µM [rising, partial curve, poor fit] | 
35 | Cc1nc2ncnn2c(N2CCN(C(=O)Cc3cccs3)CC2)c1C | inconclusive: 18.4 µM [cytotoxic, single point] | 
36 | CCOc1cc(C=C(C(=O)OC)C(=O)OC)ccc1OCc1ccc([N+](=O)[O-])cc1 | inconclusive: 18.4 µM [cytotoxic, single point] | 
37 | Cc1ccc2c(C)nc(SC(C(=O)c3ccccc3)c3ccccc3)nc2c1 (stereo unspecified) | inconclusive: 8.2 µM [cytotoxic, partial curve] | 
38 | O=C(O)CCSc1nc2ccccc2c(=O)[nH]1 |  | inactive: 26.5%
39 | c1cn(C23CC4CC(CC(C4)C2)C3)cn1 | inconclusive: 13 µM [rising, partial curve, poor fit] | 
40 | C=CCNC(=S)Nc1ccc(C)c(S(=O)(=O)N2CCCCC2)c1 | inconclusive: 13 µM [cytotoxic, partial curve] | 
41 | Cc1cc(C)n2c(SCc3ccc(Cl)cc3Cl)nnc2n1 | inconclusive: 20.6 µM [cytotoxic, single point] | 
